No constants are given. Whether binding was seen depends on the method and setting. Some results given as binding are weak or reduced against the parent protein; the word gives no strength.
Target: β-catenin (human (endogenous in SW480 and HCT116)) (UniProt P35222)
Assay: Re-ChIP; chromatin cross-linked with 1% formaldehyde, sonicated to ~500 bp; first immune complexes eluted (1% SDS, 100 mM NaCO3), diluted in re-ChIP buffer and precipitated with a second antibody; read out by real-time PCR of the ADAM10/17/19 promoters

By UniProt entry, the sequences of proteins in these tests, tags left out.
UniProt P35222: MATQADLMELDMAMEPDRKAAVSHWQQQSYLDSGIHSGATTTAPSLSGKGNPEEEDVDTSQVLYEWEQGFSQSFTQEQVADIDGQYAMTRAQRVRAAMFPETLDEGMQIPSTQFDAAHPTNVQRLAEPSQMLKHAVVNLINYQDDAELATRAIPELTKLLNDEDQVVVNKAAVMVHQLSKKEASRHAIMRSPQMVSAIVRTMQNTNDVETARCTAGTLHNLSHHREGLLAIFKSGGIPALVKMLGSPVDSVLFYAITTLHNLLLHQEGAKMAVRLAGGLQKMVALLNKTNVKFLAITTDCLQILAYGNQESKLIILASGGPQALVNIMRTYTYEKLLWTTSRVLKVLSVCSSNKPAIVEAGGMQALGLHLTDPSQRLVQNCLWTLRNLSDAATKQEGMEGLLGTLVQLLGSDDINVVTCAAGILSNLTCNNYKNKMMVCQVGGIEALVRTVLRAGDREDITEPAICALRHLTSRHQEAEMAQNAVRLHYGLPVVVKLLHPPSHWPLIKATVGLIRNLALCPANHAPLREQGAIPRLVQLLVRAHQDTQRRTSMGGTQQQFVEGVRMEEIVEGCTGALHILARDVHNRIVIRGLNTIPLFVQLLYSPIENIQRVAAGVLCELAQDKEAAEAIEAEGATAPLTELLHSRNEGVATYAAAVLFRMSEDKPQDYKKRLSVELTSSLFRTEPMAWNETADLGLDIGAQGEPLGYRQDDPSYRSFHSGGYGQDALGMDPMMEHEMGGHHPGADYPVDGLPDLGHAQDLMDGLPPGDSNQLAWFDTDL
UniProt P51532: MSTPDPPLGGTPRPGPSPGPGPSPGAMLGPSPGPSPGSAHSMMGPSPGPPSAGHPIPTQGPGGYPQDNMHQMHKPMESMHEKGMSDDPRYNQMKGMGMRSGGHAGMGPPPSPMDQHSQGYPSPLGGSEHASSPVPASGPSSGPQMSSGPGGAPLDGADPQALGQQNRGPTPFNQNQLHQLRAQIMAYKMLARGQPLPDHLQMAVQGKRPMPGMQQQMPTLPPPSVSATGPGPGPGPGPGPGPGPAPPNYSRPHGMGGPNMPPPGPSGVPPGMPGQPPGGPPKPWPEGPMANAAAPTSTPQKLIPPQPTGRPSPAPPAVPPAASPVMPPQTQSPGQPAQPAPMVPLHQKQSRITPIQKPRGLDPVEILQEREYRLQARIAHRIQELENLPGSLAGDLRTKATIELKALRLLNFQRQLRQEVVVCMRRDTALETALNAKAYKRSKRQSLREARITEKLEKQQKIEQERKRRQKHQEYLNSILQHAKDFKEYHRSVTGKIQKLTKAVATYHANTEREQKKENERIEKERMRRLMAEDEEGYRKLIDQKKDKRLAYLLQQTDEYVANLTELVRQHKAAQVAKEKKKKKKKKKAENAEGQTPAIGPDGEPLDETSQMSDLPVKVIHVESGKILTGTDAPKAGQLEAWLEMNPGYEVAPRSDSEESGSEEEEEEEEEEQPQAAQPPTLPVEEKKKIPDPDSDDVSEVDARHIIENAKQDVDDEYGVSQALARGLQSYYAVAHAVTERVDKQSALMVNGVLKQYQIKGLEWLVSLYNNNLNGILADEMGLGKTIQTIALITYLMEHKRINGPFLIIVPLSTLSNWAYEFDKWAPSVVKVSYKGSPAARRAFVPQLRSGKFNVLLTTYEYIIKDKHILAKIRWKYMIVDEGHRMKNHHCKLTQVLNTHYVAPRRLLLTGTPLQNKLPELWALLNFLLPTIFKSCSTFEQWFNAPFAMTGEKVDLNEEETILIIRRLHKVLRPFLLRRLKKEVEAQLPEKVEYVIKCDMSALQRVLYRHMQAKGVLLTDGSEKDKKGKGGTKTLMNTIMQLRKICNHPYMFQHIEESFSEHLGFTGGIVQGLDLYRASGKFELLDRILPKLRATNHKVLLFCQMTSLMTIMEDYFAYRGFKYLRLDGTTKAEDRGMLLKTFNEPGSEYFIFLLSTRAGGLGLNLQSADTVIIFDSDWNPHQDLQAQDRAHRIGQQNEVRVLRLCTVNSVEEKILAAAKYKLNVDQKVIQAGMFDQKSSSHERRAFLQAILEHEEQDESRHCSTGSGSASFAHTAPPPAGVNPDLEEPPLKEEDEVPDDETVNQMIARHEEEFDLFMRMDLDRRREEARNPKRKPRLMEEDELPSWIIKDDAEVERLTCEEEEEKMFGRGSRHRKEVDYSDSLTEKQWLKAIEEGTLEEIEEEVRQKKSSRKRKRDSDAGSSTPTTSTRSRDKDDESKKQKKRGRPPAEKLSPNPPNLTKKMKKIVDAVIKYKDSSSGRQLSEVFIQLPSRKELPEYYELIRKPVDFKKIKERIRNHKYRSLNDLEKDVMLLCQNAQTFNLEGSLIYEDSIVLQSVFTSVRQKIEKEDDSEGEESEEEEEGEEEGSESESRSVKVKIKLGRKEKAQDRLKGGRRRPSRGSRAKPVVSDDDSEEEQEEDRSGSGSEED

binding: binds
Substance: BRG1 (from UniProt P51532 1-1647)

— publication PMC7517301
